According to PMC5965893:
Results are given in words; binding and its absence hold for the method and conditions named. Binding seen in cells or lysates may run through a third protein. For part of these data: Binding calls can cover weak binding; strength is not graded here. For part of these data: Tags and fused reporters may be left off the sequences shown.

Experiments:
[1] = biological target: full-length TrkC tagged with GFP (TrkC-FL-GFP); assay: co-IP; transfected HEK293T cells lysed in 50 mM HEPES pH 7.6, 125 mM NaCl, 5 mM EDTA, 0.1% NP-40; immunoprecipitation with anti-GFP and protein G sepharose; western blot with anti-Flag
[2] = biological target: TrkC-642-825-GFP; assay: proximity ligation; DuoLink PLA on SHEP cells fixed in 4% PFA and permeabilised; pairs of primary antibodies (anti-GFP or anti-Flag for the TrkC constructs; pan-importin, anti-Hey1 or anti-MDM2 for endogenous proteins); red spots counted per cell

Binder	binding [1]	binding [2]
Hey1-Flag (protein, UniProt Q9WV93 1-299) MKRAHPDYSSSDSELDETIEVEKESADENGNLSSALCSMSPTTSSQVLARKRRRGIIEKRRRDRINNSLSELRRLVPSAFEKQGSAKLEKAEILQMTVDHLKMLHTAGGKGYFDAHALAMDYRSLGFRECLAEVARYLSIIEGLDASDPLLVRLVSHLNNYASQREAASGAHGGLGHIPWGSAFGHHPHIAHPLLLPQNGHGNAGTAASPTEPHHQGRLASAHPEAPALRAPPSGGLGPVLPVVTSASKLSPPLLSSVASLSAFPFSFSSFHLLSPSTPTQAANLGKPYRPWGTEIGAF	binds	
endogenous Hey1 (protein, UniProt Q9Y5J3 1-304) MKRAHPEYSSSDSELDETIEVEKESADENGNLSSALGSMSPTTSSQILARKRRRGIIEKRRRDRINNSLSELRRLVPSAFEKQGSAKLEKAEILQMTVDHLKMLHTAGGKGYFDAHALAMDYRSLGFRECLAEVARYLSIIEGLDASDPLRVRLVSHLNNYASQREAASGAHAGLGHIPWGTVFGHHPHIAHPLLLPQNGHGNAGTTASPTEPHHQGRLGSAHPEAPALRAPPSGSLGPVLPVVTSASKLSPPLLSSVASLSAFPFSFGSFHLLSPNALSPSAPTQAANLGKPYRPWGTEIGAF		no binding
HeyL-Flag (protein, UniProt Q9DBX7 1-326) MKRPRAPSGSDGESDGPIDVGQENDLSQMARPLTTPSPSQMQARKKRRGIIEKRRRDRINSSLSELRRLVPTAFEKQGSSKLEKAEVLQMTVDHLKMLHASGGTGFFDARALAVDFRSIGFRECLTEVIRYLGVLEGPSSHADPVRIRLLSHLKSYAAEMEPSPTTTSALAFPVWPWSFLHSCPGLPSLNSQLAILGRVPGPVLPSISSPPYPISALRSAPVHRPAGTIPPTRRNLLPSRGVTSTQRAHLPERPAAPPPTALDARAARSIVPIPPCSPTTAPGAGKSDDNVSGSISSPCPSGPTGRPAGAVFYHSWVSEITEIGAF	no binding	
